Source: paper PMC3164655
These are yes or no findings as the source states them, for the method shown. Binding seen in cells or lysates may run through a third protein. Here binding means that the protein was enriched with, or labelled near, the bait; the list need not be complete. A no says only that the protein was not detected with the bait.

Biological target: CagL (H. pylori 26695 (endogenous))
Experiment: affinity purification with mass spectrometry; polyclonal anti-CagL antibodies cross-linked to Protein A beads; RIPA lysate of WT H. pylori 26695 grown on solid media (48 h; 24 h for the comparison with ΔcagH and ΔcagI mutants); ΔcagL mutant processed in parallel as control; room temperature, washed in PBS with 0.1% Tween-20; MudPIT

B1: CagY (protein, UniProt D3XNT5 1-77)
chain: MGNANEVRDKFIQNYATSLKDSNDPQDFLRRVQELRINMQKNFISFDAYYNYLNNLVLASYTSLQTRKDFCRKHDQK
binding: no binding
